# Experimental data from the supplement of paper PMC10849652.
# By UniProt entry, the sequences of proteins in these tests, tags left out. Where a name states a change or a piece, a line headed by the entry shows the natural chain unless it says otherwise.
# UniProt Q9UQN3, whole entry, looked up: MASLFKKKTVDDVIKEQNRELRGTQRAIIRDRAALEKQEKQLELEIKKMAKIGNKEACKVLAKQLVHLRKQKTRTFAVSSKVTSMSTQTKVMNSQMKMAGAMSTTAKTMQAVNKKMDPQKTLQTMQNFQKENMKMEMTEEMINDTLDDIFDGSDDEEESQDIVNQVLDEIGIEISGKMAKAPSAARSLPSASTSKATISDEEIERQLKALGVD
# UniProt Q9H5V8, whole entry, looked up: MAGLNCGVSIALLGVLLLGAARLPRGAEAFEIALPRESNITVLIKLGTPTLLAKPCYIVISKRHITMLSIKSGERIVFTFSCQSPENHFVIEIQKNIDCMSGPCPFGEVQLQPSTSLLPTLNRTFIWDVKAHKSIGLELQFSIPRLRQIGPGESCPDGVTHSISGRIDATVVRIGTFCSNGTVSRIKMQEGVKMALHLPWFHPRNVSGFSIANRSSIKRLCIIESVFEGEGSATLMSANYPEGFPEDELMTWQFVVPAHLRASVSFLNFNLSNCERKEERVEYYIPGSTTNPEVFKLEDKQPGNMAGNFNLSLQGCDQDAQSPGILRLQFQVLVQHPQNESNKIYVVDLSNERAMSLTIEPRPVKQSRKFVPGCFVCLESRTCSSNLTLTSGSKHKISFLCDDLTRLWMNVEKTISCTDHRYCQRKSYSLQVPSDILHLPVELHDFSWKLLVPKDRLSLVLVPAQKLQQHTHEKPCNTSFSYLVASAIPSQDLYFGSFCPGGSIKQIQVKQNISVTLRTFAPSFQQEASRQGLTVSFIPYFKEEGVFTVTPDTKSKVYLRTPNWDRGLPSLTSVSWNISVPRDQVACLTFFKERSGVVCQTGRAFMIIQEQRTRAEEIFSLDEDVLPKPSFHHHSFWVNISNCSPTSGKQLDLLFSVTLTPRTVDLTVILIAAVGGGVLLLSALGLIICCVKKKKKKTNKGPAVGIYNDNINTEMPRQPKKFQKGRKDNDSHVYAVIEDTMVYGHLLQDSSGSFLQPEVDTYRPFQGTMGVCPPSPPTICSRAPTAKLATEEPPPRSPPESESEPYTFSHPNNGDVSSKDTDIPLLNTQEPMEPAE
# UniProt P41208: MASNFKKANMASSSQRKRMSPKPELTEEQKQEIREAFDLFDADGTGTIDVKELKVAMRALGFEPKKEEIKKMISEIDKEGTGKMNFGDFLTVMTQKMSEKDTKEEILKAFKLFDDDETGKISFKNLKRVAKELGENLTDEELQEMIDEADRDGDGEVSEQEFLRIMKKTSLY
# UniProt Q5SW79: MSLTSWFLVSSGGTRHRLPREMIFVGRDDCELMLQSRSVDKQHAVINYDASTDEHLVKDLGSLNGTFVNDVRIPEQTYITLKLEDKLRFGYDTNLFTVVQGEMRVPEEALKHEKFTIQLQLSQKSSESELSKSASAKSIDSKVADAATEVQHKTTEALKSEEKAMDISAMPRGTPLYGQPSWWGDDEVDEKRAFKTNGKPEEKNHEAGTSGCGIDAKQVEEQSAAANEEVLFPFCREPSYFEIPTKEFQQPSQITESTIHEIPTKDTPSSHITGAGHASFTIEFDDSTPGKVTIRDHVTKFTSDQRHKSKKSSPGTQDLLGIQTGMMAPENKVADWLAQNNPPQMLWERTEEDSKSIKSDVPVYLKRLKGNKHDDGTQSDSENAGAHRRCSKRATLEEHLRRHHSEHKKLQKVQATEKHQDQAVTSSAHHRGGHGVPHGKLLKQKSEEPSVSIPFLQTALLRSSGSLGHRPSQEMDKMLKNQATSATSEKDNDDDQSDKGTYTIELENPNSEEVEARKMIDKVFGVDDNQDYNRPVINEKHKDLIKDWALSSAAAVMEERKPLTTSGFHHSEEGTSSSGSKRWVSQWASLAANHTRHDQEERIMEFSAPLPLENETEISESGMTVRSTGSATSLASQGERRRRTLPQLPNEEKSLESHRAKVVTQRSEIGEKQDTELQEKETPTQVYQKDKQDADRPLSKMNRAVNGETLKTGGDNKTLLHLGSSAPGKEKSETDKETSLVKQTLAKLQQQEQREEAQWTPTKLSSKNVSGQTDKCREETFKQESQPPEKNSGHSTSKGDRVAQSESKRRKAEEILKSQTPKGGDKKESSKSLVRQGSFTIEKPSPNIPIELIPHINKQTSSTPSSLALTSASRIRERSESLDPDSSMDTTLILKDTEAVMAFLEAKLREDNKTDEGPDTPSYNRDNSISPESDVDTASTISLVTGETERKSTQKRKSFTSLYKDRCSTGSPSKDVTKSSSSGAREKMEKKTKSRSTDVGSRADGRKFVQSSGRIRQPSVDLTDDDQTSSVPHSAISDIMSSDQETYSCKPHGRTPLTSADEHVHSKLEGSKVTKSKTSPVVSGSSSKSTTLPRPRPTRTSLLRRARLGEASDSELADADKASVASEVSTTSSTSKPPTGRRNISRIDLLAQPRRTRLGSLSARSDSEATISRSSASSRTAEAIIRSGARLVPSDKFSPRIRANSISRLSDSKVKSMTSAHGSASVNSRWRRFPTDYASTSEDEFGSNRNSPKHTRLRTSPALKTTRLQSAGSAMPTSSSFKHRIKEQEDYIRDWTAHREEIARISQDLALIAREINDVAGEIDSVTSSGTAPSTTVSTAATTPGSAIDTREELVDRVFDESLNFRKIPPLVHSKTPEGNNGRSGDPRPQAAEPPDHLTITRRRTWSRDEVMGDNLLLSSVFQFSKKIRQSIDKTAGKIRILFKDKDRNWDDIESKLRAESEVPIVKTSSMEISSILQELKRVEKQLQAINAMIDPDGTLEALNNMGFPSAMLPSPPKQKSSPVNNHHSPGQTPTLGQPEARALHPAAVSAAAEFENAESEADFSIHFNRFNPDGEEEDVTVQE
# UniProt Q9Y6H1: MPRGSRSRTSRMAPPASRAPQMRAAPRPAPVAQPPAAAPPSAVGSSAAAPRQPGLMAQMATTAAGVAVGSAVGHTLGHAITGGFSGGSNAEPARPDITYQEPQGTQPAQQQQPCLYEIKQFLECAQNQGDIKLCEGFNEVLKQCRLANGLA
# UniProt Q9BU64: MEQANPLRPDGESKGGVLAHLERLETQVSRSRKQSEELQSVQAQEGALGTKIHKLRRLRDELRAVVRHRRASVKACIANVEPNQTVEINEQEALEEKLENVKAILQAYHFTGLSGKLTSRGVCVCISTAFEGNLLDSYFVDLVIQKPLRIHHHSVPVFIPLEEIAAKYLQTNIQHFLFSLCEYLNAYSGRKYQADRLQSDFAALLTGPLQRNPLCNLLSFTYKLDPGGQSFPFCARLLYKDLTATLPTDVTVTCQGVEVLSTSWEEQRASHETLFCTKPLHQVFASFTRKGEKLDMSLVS
# UniProt O14735: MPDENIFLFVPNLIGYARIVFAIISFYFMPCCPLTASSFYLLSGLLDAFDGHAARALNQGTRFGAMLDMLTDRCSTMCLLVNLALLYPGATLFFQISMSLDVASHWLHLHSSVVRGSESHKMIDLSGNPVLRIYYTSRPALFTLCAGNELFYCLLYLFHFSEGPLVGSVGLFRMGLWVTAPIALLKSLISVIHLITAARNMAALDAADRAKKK
# UniProt O15182: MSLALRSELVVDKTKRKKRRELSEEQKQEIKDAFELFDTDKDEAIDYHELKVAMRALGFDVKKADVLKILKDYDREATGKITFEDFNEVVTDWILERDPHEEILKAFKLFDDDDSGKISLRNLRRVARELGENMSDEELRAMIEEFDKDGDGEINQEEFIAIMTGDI
# UniProt Q9NXV6: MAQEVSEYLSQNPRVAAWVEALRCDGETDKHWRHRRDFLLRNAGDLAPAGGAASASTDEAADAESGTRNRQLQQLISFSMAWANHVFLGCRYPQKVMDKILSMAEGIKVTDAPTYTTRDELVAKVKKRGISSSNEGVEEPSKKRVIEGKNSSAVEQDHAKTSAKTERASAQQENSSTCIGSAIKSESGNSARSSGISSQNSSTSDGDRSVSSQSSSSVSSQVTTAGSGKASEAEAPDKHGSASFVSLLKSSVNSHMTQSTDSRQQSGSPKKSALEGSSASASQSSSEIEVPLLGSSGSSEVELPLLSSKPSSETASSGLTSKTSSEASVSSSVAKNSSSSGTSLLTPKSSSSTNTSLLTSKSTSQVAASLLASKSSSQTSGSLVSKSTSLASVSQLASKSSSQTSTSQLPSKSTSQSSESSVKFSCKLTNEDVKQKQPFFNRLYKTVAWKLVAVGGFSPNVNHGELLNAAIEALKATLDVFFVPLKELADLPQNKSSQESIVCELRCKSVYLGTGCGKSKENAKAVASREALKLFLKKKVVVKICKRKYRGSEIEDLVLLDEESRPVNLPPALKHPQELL
# UniProt P00751, whole entry, looked up: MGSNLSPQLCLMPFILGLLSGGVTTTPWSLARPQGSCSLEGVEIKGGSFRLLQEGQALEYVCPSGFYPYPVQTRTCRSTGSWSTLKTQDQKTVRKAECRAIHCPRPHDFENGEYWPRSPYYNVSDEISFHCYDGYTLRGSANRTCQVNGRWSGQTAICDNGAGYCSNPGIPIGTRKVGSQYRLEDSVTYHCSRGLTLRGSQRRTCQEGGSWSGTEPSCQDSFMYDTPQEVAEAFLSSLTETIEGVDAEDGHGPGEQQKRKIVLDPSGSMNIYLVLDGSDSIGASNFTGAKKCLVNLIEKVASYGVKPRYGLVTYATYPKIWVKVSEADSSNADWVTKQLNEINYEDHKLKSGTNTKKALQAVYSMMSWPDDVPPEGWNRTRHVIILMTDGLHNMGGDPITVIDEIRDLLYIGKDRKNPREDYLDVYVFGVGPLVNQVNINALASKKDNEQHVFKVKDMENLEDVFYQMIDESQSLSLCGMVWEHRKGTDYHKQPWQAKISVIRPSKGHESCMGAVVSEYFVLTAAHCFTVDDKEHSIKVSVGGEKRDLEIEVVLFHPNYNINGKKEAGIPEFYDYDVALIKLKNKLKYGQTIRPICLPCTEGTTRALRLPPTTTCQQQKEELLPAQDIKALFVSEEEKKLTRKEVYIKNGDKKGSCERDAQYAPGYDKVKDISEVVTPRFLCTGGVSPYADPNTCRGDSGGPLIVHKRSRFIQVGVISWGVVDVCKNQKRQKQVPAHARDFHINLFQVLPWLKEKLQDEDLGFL
# UniProt Q6ZU80: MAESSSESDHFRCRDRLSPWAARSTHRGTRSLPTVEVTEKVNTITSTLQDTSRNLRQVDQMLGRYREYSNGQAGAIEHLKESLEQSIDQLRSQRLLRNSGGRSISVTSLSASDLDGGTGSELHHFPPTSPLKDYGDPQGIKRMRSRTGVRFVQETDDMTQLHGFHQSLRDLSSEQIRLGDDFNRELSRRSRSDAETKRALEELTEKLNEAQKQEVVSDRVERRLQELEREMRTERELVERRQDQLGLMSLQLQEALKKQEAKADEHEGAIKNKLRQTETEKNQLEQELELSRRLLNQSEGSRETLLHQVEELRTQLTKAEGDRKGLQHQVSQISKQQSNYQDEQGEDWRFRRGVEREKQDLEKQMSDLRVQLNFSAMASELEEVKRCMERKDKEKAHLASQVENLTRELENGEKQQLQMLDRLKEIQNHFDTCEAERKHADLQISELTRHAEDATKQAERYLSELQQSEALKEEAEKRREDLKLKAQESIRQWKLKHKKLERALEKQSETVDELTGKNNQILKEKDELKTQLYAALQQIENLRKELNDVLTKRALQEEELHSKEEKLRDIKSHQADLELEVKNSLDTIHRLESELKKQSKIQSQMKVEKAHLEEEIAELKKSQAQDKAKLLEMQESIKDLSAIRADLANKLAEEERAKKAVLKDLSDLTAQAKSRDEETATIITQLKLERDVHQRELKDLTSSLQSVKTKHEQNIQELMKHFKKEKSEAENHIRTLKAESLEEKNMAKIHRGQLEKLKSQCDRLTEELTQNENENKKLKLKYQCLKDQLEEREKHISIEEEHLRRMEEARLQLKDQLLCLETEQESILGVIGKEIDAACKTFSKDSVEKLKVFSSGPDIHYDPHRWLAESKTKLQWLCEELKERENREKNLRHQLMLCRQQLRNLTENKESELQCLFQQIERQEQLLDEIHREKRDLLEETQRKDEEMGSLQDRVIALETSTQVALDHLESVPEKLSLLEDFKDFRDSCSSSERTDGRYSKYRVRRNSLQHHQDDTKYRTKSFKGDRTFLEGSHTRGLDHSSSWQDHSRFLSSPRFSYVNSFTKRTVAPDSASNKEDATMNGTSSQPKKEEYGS
# UniProt Q9NRR3: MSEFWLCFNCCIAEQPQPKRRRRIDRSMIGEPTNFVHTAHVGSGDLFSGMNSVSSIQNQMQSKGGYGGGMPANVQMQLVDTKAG
# UniProt P49918: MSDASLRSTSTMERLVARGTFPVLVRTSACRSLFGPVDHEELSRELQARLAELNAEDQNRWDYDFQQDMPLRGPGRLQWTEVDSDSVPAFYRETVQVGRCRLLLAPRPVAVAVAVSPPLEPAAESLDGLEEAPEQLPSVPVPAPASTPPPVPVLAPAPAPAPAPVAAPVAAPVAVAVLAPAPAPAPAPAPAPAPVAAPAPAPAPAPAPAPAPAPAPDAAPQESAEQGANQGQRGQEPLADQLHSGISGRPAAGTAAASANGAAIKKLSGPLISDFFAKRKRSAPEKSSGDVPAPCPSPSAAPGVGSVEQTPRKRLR
# The other results are listed elsewhere or left out.
# What was measured:
# Experiment in all cases: log2 fold change, soluble protein after heating vs DMSO (PISA); higher = thermal stabilisation; K562 cells, 10 uM, 30 min; active = over 0.2 and 3.5 SD of the protein, either way, in both replicates (recomputed)
# [1] = compound: CC1=C(C=C(C=C1)NC(=O)C2=CC(=CC=C2)C(C)(C)C#N)NC3=CC4=C(C=C3)N=CN(C4=O)C
# How it was run: (§1)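 K562 cells at 2×10^6 cells/mL were given 10 μM compound for 30 min. Aliquots then went through 3 min of heating across 48°C-58°C, were pooled, and were extracted in PBS with 0.5% NP-40 at 4°C, and the supernatant after 21,000xg for 90 min was quantified by TMTpro 16plex LC-MS/MS with channel sums equalised. Thermal stability relative to control samples, from duplicates, is given as log2 fold change.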
# [2] = compound: CC1=C(C=C(C=C1)NC(=O)C2=CC(=CC=C2)N(C)C)NC(=O)C3=CC=C(C=C3)O
# How it was run: as §1
# [3] = compound: CC1=CC=C(C=C1)SC2=C3C=C(SC3=CN=C2)C(=O)N
# How it was run: as §1
# [4] = compound: CC1=NC(=CC=C1)C2=C(N=C(N2)C(C)(C)C)C3=CC4=NC=CN=C4C=C3
# How it was run: as §1
# Nexturastat A = compound: CCCCN(Cc1ccc(C(=O)NO)cc1)C(=O)Nc1ccccc1 [Nexturastat A]
# How it was run: as §1
# vemurafenib = compound: CCCS(=O)(=O)Nc1ccc(F)c(C(=O)c2c[nH]c3ncc(-c4ccc(Cl)cc4)cc23)c1F [vemurafenib]
# How it was run: as §1
# [5] = compound: CCCS(=O)(=O)Nc1ccc(F)c(C(=O)c2c[nH]c3ncc(Cl)cc23)c1F
# How it was run: as §1
# [6] = compound: CCCc1cc(C)[nH]c(=O)c1CNC(=O)c1cc(-c2ccnc(N3CCN(C)CC3)c2)cc2c1cnn2C(C)C
# How it was run: as §1
# givinostat = compound: CCN(CC)Cc1ccc2cc(COC(=O)Nc3ccc(C(=O)NO)cc3)ccc2c1 [givinostat]
# How it was run: as §1
# barasertib = compound: CCN(CCCOc1ccc2c(Nc3cc(CC(=O)Nc4cccc(F)c4)[nH]n3)ncnc2c1)CCOP(=O)(O)O [barasertib]
# How it was run: as §1
Target,log2 fold change [1],log2 fold change [2],log2 fold change [3],log2 fold change [4],log2 fold change (Nexturastat A),log2 fold change (vemurafenib),log2 fold change [5],log2 fold change [6],log2 fold change (givinostat),log2 fold change (barasertib)
CHMP2B (UniProt Q9UQN3),inactive: -0.032,inactive: 0.016,inactive: 0.028,inactive: 0.055,inactive: -0.026,inactive: 0.011,inactive: 0.061,inactive: -0.017,inactive: 0.001,inactive: 0.012
CDCP1 (UniProt Q9H5V8),inactive: 0.038,inactive: 0.017,inactive: -0.025,inactive: -0.015,inactive: 0.014,inactive: 0.014,inactive: -0.053,inactive: -0.026,inactive: 0.02,inactive: -0.006
CDCA3 (UniProt Q99618),inactive: -0.013,inactive: 0.009,inactive: -0.03,inactive: -0.02,inactive: 0.041,inactive: -0.038,inactive: -0.043,inactive: -0.023,inactive: -0.003,inactive: 0.003
CEP250 (UniProt Q9BV73),inactive: 0.094,inactive: -0.008,inactive: 0.069,inactive: -0.089,inactive: 0.122,inactive: 0,inactive: 0.037,inactive: -0.214,inactive: 0.066,inactive: -0.024
CETN2 (UniProt P41208),inactive: -0.015,inactive: -0.016,inactive: -0.146,inactive: -0.071,inactive: -0.188,inactive: -0.008,active: -0.335,inactive: -0.034,inactive: -0.034,inactive: -0.013
CDK9 isoform 2 (UniProt P50750),inactive: 0.053,inactive: -0.067,inactive: -0.001,inactive: -0.084,inactive: 0.155,inactive: -0.052,inactive: 0.024,inactive: 0.036,inactive: 0.014,inactive: 0.002
CHML (UniProt P26374),inactive: -0.004,inactive: -0.016,inactive: 0.04,inactive: 0.015,inactive: -0.036,inactive: 0.014,inactive: 0.071,inactive: -0.065,inactive: -0.088,inactive: 0.019
CEP170 (UniProt Q5SW79),inactive: 0.032,inactive: 0.013,inactive: -0.084,inactive: -0.065,inactive: 0.158,inactive: 0.007,inactive: -0.014,inactive: 0.064,inactive: 0.05,inactive: -0.035
CHCHD2 (UniProt Q9Y6H1),inactive: 0.019,inactive: -0.037,inactive: 0.282,inactive: 0.004,inactive: -0.047,inactive: -0.028,inactive: -0.019,inactive: -0.09,inactive: -0.042,inactive: 0.008
CENPO (UniProt Q9BU64),inactive: 0.149,inactive: -0.159,inactive: 0.106,inactive: -0.114,inactive: -0.058,inactive: -0.087,inactive: 0.003,inactive: 0.11,inactive: -0.125,inactive: 0.072
CDK13 (UniProt Q14004),inactive: 0.045,inactive: 0.027,inactive: -0.047,inactive: 0.056,inactive: -0.212,inactive: -0.056,inactive: -0.037,inactive: -0.011,inactive: -0.021,inactive: -0.029
CDKAL1 (UniProt Q5VV42),inactive: 0.007,inactive: -0.059,inactive: -0.016,inactive: 0,inactive: 0.035,inactive: 0.022,inactive: 0.002,inactive: -0.012,inactive: -0.117,inactive: -0.004
CDIPT (UniProt O14735),inactive: 0.102,inactive: 0.037,inactive: -0.03,inactive: -0.038,inactive: 0.008,inactive: 0.021,inactive: 0.077,inactive: -0.03,inactive: -0.017,inactive: 0.01
CETN3 (UniProt O15182),inactive: 0.001,inactive: 0.012,inactive: -0.099,inactive: -0.102,inactive: -0.01,inactive: -0.056,inactive: -0.164,inactive: -0.116,inactive: 0.008,inactive: 0.043
CDK6 (UniProt Q00534),inactive: -0.037,inactive: 0.01,inactive: 0.044,inactive: 0,inactive: 0.032,inactive: 0.002,inactive: -0.024,inactive: -0.027,inactive: -0.019,inactive: -0.018
CDV3 (UniProt Q9UKY7),inactive: 0.047,inactive: 0.027,inactive: -0.038,inactive: 0.179,inactive: -0.079,inactive: 0.013,inactive: -0.07,inactive: -0.017,inactive: 0.002,inactive: -0.01
CDKN2AIP (UniProt Q9NXV6),inactive: 0.046,inactive: -0.01,inactive: -0.076,inactive: 0.008,inactive: 0.052,inactive: 0.043,inactive: -0.053,inactive: 0.023,inactive: 0.012,inactive: -0.017
CDK2 (UniProt P24941),inactive: -0.012,inactive: -0.005,inactive: -0.009,inactive: 0.029,inactive: -0.062,inactive: -0.008,inactive: 0.005,inactive: -0.069,inactive: 0.038,inactive: -0.007
CDSN (UniProt Q15517),inactive: -0.15,–,inactive: 0.061,inactive: -0.172,inactive: 0.272,inactive: 0.503,inactive: -0.145,inactive: -0.016,–,inactive: 0.292
CEP97 isoform 2 (UniProt Q8IW35),inactive: 0.032,inactive: -0.062,inactive: -0.041,inactive: -0.058,inactive: 0.032,inactive: 0.069,inactive: 0.012,–,inactive: -0.018,–
CDK5RAP3 isoform 4 (UniProt Q96JB5),inactive: 0.018,inactive: -0.035,inactive: 0.008,inactive: 0.015,inactive: 0.051,inactive: 0.044,inactive: 0.077,inactive: -0.015,inactive: 0.109,inactive: 0.029
CDC42EP4 (UniProt Q9H3Q1),inactive: -0.037,inactive: -0.018,inactive: 0.006,–,inactive: 0.061,inactive: 0,inactive: -0.039,inactive: -0.034,inactive: 0.078,inactive: -0.025
CDK17 isoform 2 (UniProt Q00537),inactive: 0.105,–,inactive: 0.061,inactive: -0.051,inactive: 0.172,inactive: -0.098,inactive: -0.085,inactive: 0.042,inactive: 0.003,inactive: 0.055
CFB (UniProt P00751),inactive: -0.433,inactive: 0.5,–,–,–,inactive: 0.18,–,inactive: -0.33,inactive: -0.202,inactive: 0.04
CEP128 (UniProt Q6ZU80),inactive: -0.043,–,inactive: 0.006,inactive: -0.188,–,inactive: -0.1,inactive: -0.118,inactive: -0.422,–,inactive: 0.098
CDC42SE2 (UniProt Q9NRR3),inactive: 0.035,–,inactive: 0.057,–,inactive: 0.037,inactive: 0.161,inactive: 0,inactive: 0.143,inactive: 0.231,inactive: 0.06
CDC45 isoform 3 (UniProt O75419),inactive: -0.207,inactive: 0,inactive: 0.08,inactive: 0.019,inactive: 0.078,–,inactive: 0.032,–,–,–
CHD5 (UniProt Q8TDI0),inactive: -0.029,inactive: -0.001,inactive: -0.046,–,inactive: 0.261,inactive: 0.055,inactive: 0.096,inactive: -0.004,inactive: 0.297,inactive: 0.053
CDKN1C (UniProt P49918),inactive: 0.044,inactive: -0.021,–,–,inactive: 0.091,–,–,inactive: 0.05,–,inactive: -0.037

# Reprinted from the results shown (6 entries):
Target,log2 fold change [1],log2 fold change [2],log2 fold change [3],log2 fold change [4],log2 fold change (Nexturastat A),log2 fold change (vemurafenib),log2 fold change [5],log2 fold change [6],log2 fold change (givinostat),log2 fold change (barasertib)
CDIPT (UniProt O14735),inactive: 0.102,inactive: 0.037,inactive: -0.03,inactive: -0.038,inactive: 0.008,inactive: 0.021,inactive: 0.077,inactive: -0.03,inactive: -0.017,inactive: 0.01
CETN3 (UniProt O15182),inactive: 0.001,inactive: 0.012,inactive: -0.099,inactive: -0.102,inactive: -0.01,inactive: -0.056,inactive: -0.164,inactive: -0.116,inactive: 0.008,inactive: 0.043
CDK6 (UniProt Q00534),inactive: -0.037,inactive: 0.01,inactive: 0.044,inactive: 0,inactive: 0.032,inactive: 0.002,inactive: -0.024,inactive: -0.027,inactive: -0.019,inactive: -0.018
CDV3 (UniProt Q9UKY7),inactive: 0.047,inactive: 0.027,inactive: -0.038,inactive: 0.179,inactive: -0.079,inactive: 0.013,inactive: -0.07,inactive: -0.017,inactive: 0.002,inactive: -0.01
CDKN2AIP (UniProt Q9NXV6),inactive: 0.046,inactive: -0.01,inactive: -0.076,inactive: 0.008,inactive: 0.052,inactive: 0.043,inactive: -0.053,inactive: 0.023,inactive: 0.012,inactive: -0.017
CDK2 (UniProt P24941),inactive: -0.012,inactive: -0.005,inactive: -0.009,inactive: 0.029,inactive: -0.062,inactive: -0.008,inactive: 0.005,inactive: -0.069,inactive: 0.038,inactive: -0.007
